Measured values published in the supplement of paper PMC10849652.
Some of the results follow.

The chains behind the UniProt entries cited, without tags or fusion partners. Where a name states a change or a piece, a line headed by the entry shows the natural chain unless it says otherwise.
UniProt Q9NTX5: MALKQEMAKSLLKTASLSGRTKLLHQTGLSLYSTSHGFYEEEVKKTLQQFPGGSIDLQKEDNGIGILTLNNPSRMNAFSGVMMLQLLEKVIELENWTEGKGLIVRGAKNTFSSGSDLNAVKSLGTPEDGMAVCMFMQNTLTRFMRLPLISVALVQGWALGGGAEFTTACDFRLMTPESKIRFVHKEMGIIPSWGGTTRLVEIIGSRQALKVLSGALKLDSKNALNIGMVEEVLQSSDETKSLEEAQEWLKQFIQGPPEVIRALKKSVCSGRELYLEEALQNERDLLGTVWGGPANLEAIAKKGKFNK
UniProt Q8NDI1: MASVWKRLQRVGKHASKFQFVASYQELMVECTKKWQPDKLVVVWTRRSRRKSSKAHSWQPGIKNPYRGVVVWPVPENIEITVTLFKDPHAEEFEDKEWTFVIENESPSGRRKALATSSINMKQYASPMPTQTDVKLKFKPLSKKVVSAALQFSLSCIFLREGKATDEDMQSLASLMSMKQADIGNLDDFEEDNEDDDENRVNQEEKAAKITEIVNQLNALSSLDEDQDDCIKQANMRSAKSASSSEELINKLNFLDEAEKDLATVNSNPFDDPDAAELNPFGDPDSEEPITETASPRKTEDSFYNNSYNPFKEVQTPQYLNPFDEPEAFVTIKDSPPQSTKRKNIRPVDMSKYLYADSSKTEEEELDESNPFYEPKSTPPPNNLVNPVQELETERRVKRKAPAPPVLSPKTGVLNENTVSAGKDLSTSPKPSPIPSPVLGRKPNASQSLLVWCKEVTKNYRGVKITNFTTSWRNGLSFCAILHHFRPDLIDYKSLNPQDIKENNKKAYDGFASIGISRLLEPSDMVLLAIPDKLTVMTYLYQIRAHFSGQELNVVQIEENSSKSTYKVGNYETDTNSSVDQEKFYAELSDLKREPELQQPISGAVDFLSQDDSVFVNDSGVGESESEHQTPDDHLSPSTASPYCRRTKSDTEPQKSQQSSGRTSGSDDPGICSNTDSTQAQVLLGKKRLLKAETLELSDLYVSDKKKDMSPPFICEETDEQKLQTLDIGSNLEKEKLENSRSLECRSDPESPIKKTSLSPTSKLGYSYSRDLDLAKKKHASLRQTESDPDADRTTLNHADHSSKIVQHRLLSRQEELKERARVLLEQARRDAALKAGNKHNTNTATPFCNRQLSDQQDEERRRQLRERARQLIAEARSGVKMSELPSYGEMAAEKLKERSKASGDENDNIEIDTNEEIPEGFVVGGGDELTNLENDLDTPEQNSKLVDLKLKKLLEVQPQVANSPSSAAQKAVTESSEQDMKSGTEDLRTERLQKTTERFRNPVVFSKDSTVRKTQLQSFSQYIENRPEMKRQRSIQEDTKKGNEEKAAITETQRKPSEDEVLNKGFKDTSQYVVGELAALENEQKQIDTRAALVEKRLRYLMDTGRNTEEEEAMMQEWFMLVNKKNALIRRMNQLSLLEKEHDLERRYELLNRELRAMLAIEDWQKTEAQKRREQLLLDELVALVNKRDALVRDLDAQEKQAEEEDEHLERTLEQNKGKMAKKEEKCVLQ
UniProt Q8N5C7: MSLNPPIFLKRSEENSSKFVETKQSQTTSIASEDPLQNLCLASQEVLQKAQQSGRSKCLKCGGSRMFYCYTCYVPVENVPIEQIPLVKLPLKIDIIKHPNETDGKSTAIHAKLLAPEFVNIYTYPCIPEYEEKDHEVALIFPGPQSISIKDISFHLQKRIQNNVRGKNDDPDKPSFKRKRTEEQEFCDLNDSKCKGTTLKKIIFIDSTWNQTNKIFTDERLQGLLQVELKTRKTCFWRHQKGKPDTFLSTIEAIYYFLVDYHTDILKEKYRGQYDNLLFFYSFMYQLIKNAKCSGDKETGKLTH
UniProt Q15125: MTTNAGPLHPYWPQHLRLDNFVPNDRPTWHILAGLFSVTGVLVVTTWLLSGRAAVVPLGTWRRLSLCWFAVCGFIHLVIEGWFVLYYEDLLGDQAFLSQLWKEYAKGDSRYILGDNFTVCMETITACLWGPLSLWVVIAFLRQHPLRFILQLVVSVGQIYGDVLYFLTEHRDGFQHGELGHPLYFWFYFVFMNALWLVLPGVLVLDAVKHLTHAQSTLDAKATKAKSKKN
UniProt Q8TEA8: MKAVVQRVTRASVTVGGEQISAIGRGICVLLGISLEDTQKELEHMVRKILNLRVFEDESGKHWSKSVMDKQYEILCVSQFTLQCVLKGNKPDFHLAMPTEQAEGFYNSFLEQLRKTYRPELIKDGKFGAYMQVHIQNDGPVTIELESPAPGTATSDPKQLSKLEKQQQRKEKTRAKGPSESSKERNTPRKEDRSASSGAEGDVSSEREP
UniProt Q5VYK3, whole entry, looked up: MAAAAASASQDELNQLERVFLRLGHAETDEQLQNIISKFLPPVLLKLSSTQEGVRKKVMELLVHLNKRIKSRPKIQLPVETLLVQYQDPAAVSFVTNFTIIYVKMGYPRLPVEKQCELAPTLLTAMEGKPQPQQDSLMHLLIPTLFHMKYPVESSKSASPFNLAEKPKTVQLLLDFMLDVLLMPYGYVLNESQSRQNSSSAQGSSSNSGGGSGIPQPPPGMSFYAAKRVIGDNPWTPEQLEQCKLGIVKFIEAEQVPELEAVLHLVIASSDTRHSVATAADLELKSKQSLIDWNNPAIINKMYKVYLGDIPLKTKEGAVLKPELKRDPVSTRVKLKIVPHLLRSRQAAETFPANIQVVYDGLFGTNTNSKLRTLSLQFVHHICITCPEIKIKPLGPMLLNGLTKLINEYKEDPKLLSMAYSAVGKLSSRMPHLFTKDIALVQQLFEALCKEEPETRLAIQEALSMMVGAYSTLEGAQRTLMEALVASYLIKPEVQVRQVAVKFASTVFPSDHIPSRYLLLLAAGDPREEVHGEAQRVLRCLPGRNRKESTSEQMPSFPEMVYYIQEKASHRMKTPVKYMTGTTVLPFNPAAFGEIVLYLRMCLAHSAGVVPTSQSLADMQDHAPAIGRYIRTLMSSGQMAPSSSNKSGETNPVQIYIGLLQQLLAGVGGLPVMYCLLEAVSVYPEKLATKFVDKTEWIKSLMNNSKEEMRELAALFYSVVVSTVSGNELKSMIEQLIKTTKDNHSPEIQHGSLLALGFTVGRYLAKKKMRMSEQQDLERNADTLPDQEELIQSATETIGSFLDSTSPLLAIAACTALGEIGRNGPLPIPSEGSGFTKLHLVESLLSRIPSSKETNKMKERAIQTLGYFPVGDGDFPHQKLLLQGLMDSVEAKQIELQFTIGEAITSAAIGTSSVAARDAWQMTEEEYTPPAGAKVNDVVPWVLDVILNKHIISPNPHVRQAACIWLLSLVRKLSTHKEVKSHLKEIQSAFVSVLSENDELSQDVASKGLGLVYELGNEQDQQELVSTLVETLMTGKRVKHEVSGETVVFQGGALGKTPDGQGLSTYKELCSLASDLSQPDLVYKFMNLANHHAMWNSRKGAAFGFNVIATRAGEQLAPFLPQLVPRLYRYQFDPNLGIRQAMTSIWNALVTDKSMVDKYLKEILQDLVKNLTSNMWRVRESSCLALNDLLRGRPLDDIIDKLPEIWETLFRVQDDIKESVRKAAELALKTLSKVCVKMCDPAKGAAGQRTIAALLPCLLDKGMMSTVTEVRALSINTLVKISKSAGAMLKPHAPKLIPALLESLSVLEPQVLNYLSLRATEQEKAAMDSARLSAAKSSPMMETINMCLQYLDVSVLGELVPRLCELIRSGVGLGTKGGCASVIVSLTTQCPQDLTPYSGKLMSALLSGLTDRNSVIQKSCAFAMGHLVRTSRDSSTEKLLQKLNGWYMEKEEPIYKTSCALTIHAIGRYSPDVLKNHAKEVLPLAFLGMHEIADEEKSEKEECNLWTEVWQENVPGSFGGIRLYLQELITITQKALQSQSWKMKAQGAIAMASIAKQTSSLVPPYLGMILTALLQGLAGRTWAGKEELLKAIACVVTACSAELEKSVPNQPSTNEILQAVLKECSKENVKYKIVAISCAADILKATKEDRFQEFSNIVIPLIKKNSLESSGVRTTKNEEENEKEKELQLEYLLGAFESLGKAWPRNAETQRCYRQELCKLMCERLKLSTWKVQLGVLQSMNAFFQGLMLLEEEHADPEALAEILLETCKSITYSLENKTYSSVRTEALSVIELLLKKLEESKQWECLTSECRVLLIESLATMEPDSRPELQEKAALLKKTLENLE
UniProt Q9H223: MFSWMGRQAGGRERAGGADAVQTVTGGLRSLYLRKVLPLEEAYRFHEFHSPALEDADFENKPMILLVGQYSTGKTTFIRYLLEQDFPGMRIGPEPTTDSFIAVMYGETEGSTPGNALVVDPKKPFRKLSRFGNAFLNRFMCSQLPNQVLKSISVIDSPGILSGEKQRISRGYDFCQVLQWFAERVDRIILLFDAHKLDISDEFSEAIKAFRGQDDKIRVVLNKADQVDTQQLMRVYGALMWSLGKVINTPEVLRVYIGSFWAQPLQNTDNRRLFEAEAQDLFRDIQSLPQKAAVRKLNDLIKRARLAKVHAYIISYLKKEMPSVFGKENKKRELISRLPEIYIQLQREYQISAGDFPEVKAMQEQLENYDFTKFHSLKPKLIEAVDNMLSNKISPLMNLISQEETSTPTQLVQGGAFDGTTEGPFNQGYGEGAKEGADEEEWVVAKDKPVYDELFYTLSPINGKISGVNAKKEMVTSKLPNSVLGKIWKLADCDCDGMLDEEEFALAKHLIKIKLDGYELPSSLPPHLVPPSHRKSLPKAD
UniProt Q96FN9: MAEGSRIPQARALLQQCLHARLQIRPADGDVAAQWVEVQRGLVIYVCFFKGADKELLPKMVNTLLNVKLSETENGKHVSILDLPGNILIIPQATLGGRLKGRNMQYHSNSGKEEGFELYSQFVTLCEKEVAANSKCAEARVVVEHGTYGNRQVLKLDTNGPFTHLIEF
EEF1AKMT2, A0A494BZY7, UniProt A0A494BZY7, whole entry, looked up: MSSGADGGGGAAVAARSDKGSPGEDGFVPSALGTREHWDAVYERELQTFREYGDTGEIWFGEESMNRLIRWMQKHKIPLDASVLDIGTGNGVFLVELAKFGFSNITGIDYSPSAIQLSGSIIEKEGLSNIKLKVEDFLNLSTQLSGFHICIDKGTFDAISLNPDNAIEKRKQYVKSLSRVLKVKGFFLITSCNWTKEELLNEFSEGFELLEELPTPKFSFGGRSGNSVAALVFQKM
UniProt Q96FJ2, whole entry, looked up: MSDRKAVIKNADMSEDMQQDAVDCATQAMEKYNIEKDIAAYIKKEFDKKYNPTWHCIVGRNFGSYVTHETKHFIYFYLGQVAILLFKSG
UniProt Q14156: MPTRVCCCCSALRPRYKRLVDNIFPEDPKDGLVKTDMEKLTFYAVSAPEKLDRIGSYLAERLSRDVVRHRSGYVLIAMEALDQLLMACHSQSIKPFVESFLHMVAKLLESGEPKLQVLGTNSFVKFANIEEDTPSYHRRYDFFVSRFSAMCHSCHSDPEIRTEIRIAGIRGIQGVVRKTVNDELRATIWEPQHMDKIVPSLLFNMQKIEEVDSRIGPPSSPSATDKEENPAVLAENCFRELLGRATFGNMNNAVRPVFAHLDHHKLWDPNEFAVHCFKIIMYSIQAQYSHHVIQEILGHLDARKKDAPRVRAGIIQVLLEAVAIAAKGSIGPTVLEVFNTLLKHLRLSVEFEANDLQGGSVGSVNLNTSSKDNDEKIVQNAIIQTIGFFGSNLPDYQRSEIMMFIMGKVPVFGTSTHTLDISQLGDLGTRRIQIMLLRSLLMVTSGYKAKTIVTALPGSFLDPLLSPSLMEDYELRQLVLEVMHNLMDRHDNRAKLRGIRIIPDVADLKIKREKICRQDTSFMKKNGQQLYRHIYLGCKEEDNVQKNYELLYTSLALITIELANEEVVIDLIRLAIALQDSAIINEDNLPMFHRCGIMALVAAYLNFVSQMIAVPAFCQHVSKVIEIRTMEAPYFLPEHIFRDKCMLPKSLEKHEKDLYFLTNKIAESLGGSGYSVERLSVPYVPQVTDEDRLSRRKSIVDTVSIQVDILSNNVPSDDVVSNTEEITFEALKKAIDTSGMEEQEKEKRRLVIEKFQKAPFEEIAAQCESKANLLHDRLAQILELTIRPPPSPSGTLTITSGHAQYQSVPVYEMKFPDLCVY
UniProt Q16610: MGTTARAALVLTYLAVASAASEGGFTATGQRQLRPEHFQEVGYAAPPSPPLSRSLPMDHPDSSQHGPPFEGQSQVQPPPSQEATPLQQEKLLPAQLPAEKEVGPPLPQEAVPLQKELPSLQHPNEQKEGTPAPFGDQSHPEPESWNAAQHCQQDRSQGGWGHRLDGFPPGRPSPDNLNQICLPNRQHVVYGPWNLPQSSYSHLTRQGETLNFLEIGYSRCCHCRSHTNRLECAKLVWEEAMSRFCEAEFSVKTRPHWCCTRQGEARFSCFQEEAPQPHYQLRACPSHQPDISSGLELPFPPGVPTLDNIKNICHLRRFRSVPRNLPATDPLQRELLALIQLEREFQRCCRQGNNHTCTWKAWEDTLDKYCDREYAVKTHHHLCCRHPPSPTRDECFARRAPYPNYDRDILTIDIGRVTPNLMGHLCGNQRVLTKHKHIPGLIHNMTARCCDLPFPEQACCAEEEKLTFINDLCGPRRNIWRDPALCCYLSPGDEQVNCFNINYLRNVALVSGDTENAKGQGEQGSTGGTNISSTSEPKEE

Key:
Experiment in all cases: log2 fold change, soluble protein after heating vs DMSO (PISA); higher = thermal stabilisation; K562 lysate, 10 uM; active = over 0.2 and 3.5 SD of the protein, either way, in both replicates (recomputed)
erlotinib = compound: C#Cc1cccc(Nc2ncnc3cc(OCCOC)c(OCCOC)cc23)c1 [erlotinib]
Summary of the method: (§1)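 Thermal stability, expressed as log-two fold change relative to solvent controls, is given from duplicates. Crude K562 extract in PBS pH 7.4 with 1 mM MgCl2, at 1 mg/mL protein, was treated with 10 μM compound for 30 min and heated in aliquots for 3 min across 48°C-58°C. After pooling, adjustment to 0.5% NP-40 at 4°C and centrifugation at 21,000xg for 90 min, supernatant protein was measured by TMTpro 16plex LC-MS/MS with channel sums equalised.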

[1] = compound: C/C(=N\NC(=O)C1=CC(=CC=C1)S(=O)(=O)N2CCOCC2)/C3=C(C=CC(=C3)Cl)O
Summary of the method: as §1

[2] = compound: C1=CC(=CC=C1C2=NC3=C(N2)C=C(C=C3)C(=O)N)OC4=CC=C(C=C4)Cl
Summary of the method: as §1

[3] = compound: C1=CC2=C(C=CC(=C2)/C=C\3/C(=O)NC(=NCC4=CC=CS4)S3)N=C1
Summary of the method: as §1

[4] = compound: C1=CC2=NC=CN=C2C=C1/C=C/3\C(=O)NC(=O)S3
Summary of the method: as §1

[5] = compound: C1=CC=C(C=C1)C2=NC(=C(N2)C3=CC=NC=C3)C4=CC(=C(C=C4)Cl)O
Summary of the method: as §1

[6] = compound: C1=CC=C2C(=C1)C3=NNC4=CC=CC(=C43)C2=O
Summary of the method: as §1

[7] = compound: C1CCN(C1)C(=O)NC2=CC=CC(=C2)NC3=NC=C(C(=N3)NCCC4=CN=CN4)Br
Summary of the method: as §1

[8] = compound: C1CN(CCC1(CC2=CC=C(C=C2)Cl)N)C3=NC=NC4=C3C=CN4
Summary of the method: as §1

IRAK-1-4 Inhibitor I = compound: C1COCCN1CCN2C3=CC=CC=C3N=C2NC(=O)C4=CC(=CC=C4)[N+](=O)[O-] [IRAK-1-4 Inhibitor I]
Summary of the method: as §1

Measured: log2 fold change

ECHDC1 (UniProt Q9NTX5)
inactive: erlotinib -0.015 | [1] 0.007 | [2] 0.022 | [3] -0.032 | [4] -0.014 | [5] -0.001 | [6] 0.05 | [7] -0.003 | [8] 0.034 | IRAK-1-4 Inhibitor I -0.016

DPYSL2 (UniProt Q16555)
inactive: erlotinib 0 | [1] -0.083 | [2] 0.006 | [3] 0.018 | [4] 0.04 | [5] 0.006 | [6] 0.054 | [7] -0.077 | [8] -0.186 | IRAK-1-4 Inhibitor I 0.04

EHBP1 isoform 2 (UniProt Q8NDI1)
inactive: erlotinib 0.018 | [1] 0.133 | [2] 0.009 | [3] -0.038 | [4] -0.079 | [5] 0.062 | [6] -0.001 | [7] -0.056 | [8] -0.013 | IRAK-1-4 Inhibitor I 0.008

EIF1B (UniProt O60739)
inactive: erlotinib -0.032 | [1] -0.397 | [2] -0.153 | [3] 0.255 | [4] -0.132 | [5] 0.052 | [6] 0.16 | [7] -0.028 | [8] 0.103 | IRAK-1-4 Inhibitor I -0.093

EEF1A1P5 (UniProt Q5VTE0)
inactive: erlotinib 0.014 | [1] -0.054 | [2] 0.023 | [3] 0 | [4] 0.001 | [5] -0.01 | [6] -0.065 | [7] -0.048 | [8] 0.022 | IRAK-1-4 Inhibitor I 0.003

EFHD2 (UniProt Q96C19)
inactive: erlotinib -0.002 | [1] -0.003 | [2] 0.012 | [3] -0.014 | [4] 0.018 | [5] 0.009 | [6] 0.028 | [7] -0.008 | [8] 0.001 | IRAK-1-4 Inhibitor I 0.01

DTWD1 (UniProt Q8N5C7)
inactive: erlotinib 0.01 | [1] 0.082 | [2] -0.039 | [3] -0.004 | [4] -0.048 | [5] -0.025 | [6] 0.039 | [7] 0.01 | [8] 0.047 | IRAK-1-4 Inhibitor I -0.01

EBP (UniProt Q15125)
inactive: erlotinib 0.055 | [1] 0.015 | [2] -0.073 | [3] -0.068 | [4] 0.01 | [5] -0.03 | [6] -0.128 | [7] 0.008 | [8] 0.047 | IRAK-1-4 Inhibitor I 0.086

DTD1 (UniProt Q8TEA8)
inactive: erlotinib -0.046 | [1] 0.029 | [2] -0.025 | [3] -0.022 | [4] -0.026 | [5] 0.035 | [6] 0.042 | [7] 0.031 | [8] -0.012 | IRAK-1-4 Inhibitor I -0.032

2 successive entries from above, quoted:
EBP (UniProt Q15125)
inactive: erlotinib 0.055 | [1] 0.015 | [2] -0.073 | [3] -0.068 | [4] 0.01 | [5] -0.03 | [6] -0.128 | [7] 0.008 | [8] 0.047 | IRAK-1-4 Inhibitor I 0.086

DTD1 (UniProt Q8TEA8)
inactive: erlotinib -0.046 | [1] 0.029 | [2] -0.025 | [3] -0.022 | [4] -0.026 | [5] 0.035 | [6] 0.042 | [7] 0.031 | [8] -0.012 | IRAK-1-4 Inhibitor I -0.032

(listing goes on)

EEF1G isoform 2 (UniProt P26641)
inactive: erlotinib 0.003 | [1] 0.043 | [2] -0.015 | [3] 0.002 | [4] 0.006 | [5] -0.001 | [6] 0.044 | [7] 0.022 | [8] -0.006 | IRAK-1-4 Inhibitor I 0.003

EIF2A (UniProt Q9BY44)
inactive: erlotinib 0.003 | [1] 0.011 | [2] 0.03 | [3] -0.026 | [4] 0.008 | [5] -0.004 | [6] 0.024 | [7] -0.012 | [8] 0.014 | IRAK-1-4 Inhibitor I -0.006

ECPAS (UniProt Q5VYK3)
inactive: erlotinib 0.042 | [1] 0.002 | [2] 0.02 | [3] 0.018 | [4] 0.008 | [5] -0.014 | [6] -0.067 | [7] -0.005 | [8] 0.02 | IRAK-1-4 Inhibitor I 0.009

EIF1AD (UniProt Q8N9N8)
inactive: erlotinib 0.005 | [1] 0.005 | [2] 0.072 | [3] -0.051 | [4] -0.017 | [5] 0.02 | [6] 0.043 | [7] 0.018 | [8] -0.038 | IRAK-1-4 Inhibitor I 0.019

DPH1 (UniProt Q9BZG8)
inactive: erlotinib -0.039 | [1] 0.047 | [2] 0.046 | [3] -0.015 | [4] -0.005 | [5] 0.002 | [6] 0.043 | [7] 0.005 | [8] -0.026 | IRAK-1-4 Inhibitor I 0.017

EEF1AKMT4 (UniProt P0DPD7)
inactive: erlotinib 0.057 | [1] 0.097 | [2] 0.073 | [3] 0.025 | [4] 0.039 | [5] -0.021 | [6] -0.081 | [7] -0.019 | [8] 0.08 | IRAK-1-4 Inhibitor I 0.107

DUS2 (UniProt Q9NX74)
inactive: erlotinib 0.006 | [1] 0.007 | [2] 0.017 | [3] 0.057 | [4] 0.027 | [5] 0.021 | [6] 0.033 | [7] -0.016 | [8] 0.05 | IRAK-1-4 Inhibitor I -0.004

DUT (UniProt P33316)
inactive: erlotinib -0.028 | [1] -0.256 | [2] 0.027 | [3] 0.008 | [4] 0.008 | [5] -0.01 | [6] 0.019 | [7] 0.003 | [8] 0.011 | IRAK-1-4 Inhibitor I 0.021

EEF1A1, A0A087WVQ9
inactive: erlotinib 0.029 | [1] -0.049 | [2] 0.054 | [3] -0.069 | [4] -0.016 | [5] -0.035 | [6] -0.072 | [7] -0.019 | [8] -0.001 | IRAK-1-4 Inhibitor I 0.03

EHD4 (UniProt Q9H223)
inactive: erlotinib 0.028 | [1] 0.153 | [2] -0.087 | [3] -0.023 | [4] 0.096 | [5] 0.013 | [6] -0.072 | [7] -0.024 | [8] 0.057 | IRAK-1-4 Inhibitor I -0.035

DTD2 (UniProt Q96FN9)
inactive: erlotinib -0.138 | [1] -0.074 | [2] -0.001 | [3] -0.1 | [4] 0.144 | [5] 0.053 | [6] 0.01 | [7] 0.032 | [8] -0.023 | IRAK-1-4 Inhibitor I -0.151

EEF1AKMT2, A0A494BZY7
inactive: erlotinib 0.008 | [1] -0.408 | [2] 0 | [3] -0.046 | [4] -0.018 | [5] -0.024 | [6] 0.012 | [7] -0.025 | [8] 0.03 | IRAK-1-4 Inhibitor I -0.009

EHMT2 (UniProt A2ABF8)
inactive: erlotinib 0.024 | [1] -0.051 | [2] -0.007 | [3] -0.018 | [4] -0.007 | [5] -0.008 | [6] 0.023 | [7] -0.028 | [8] 0.017 | IRAK-1-4 Inhibitor I -0.005

DUSP12 (UniProt Q9UNI6)
inactive: erlotinib -0.015 | [1] -0.014 | [2] 0.005 | [3] -0.018 | [4] 0.028 | [5] -0.009 | [6] 0.001 | [7] 0.014 | [8] 0.009 | IRAK-1-4 Inhibitor I 0.007

DYNLL2 (UniProt Q96FJ2)
inactive: erlotinib -0.049 | [1] 0.029 | [2] -0.049 | [3] 0.008 | [4] 0.019 | [5] 0.027 | [6] -0.039 | [7] 0.016 | [8] 0.066 | IRAK-1-4 Inhibitor I 0.054

EFR3A (UniProt Q14156)
inactive: erlotinib 0.016 | [1] 0.039 | [2] 0.026 | [3] 0.051 | [4] 0.053 | [5] -0.019 | [6] 0.02 | [7] 0.149 | [8] -0.08 | IRAK-1-4 Inhibitor I 0.014

EBNA1BP2 (UniProt Q99848)
inactive: erlotinib -0.033 | [1] -0.031 | [2] -0.03 | [3] 0.011 | [4] -0.008 | [5] -0.005 | [6] 0.025 | [7] 0.028 | [8] -0.025 | IRAK-1-4 Inhibitor I -0.009

ECM1 isoform 4 (UniProt Q16610)
inactive: erlotinib -0.012 | [1] 0.063 | [2] 0.019 | [3] -0.038 | [4] 0.097 | [5] -0.005 | [6] 0.021 | [7] 0.014 | [8] 0.02 | IRAK-1-4 Inhibitor I 0.066
